Some entries repeat one wording, which the source may state once for all of them.
Key:
[1] = DMPO spin-trapping EPR assay under Fenton conditions in methanol; settings: ratio of kr to ka (DMPO-•OH) = 4.3 × 10^9 M^−1 s^−1
Method: In this case, we monitor the formation of an oxygen centered radical generated in the presence of the spin trapping agent DMPO under Fenton conditions (hydrogen peroxide plus ferrous ions). For practical reasons (compound solubility), experiments were carried out using methanol as a solvent and therefore, the methoxy radical is monitored. A typical six-line EPR signal is recorded, corresponding to the DMPO/^•OCH3 radical, with the characteristic hyperfine coupling constants aN = 13.9 G and aH = 8.3 G. Here again, we can measure the decay of the EPR signal in the presence of the different antioxidant compounds and compare their relative capacity to reduce the signal. Typical concentration-dependent response curves are presented in Figure 3a for compounds EDA, 2 and 4. All six compounds can induce a decrease of the EPR signal but with various degrees of efficacy (Figure 3b). Here again, the results were quantified through the measure of the area of the EPR signal as a function of the compound concentration, to allow the calculation of the reaction constants for each compound. […] Proper dose-response curves were constructed and fitted to determine the reaction rate constant (kr) for each compound, as shown in Figure 3c and the kr values are collated in Table 2.
CW-EPR experiments were performed with an X-band Bruker Elexsys E500 spectrometer (Bruker BioSpin GmbH, Rheinstetten, Germany) operating at 9.86 GHz. CW spectra were recorded at room temperature with a microwave power of 5.024–10.02 mW and a modulation amplitude of 1–2 G that assumes non-saturation conditions. The antioxidant activity was monitored using DPPH (1,1-diphenyl-2-picrylhydrazyl) at a final concentration of 100 µM as free radical scavenging molecule and DMPO (5,5-dimethyl-1-pyrroline N-oxide) as spin trap agent for the spin trapping experiments. The DMPO solution was freshly distillated prior to use at a final concentration of 1 mM or 2 mM. The solution mixture was filled into a glass capillary of 50 μL, which was in turn, placed in 4 mm quartz EPR tubes prior to analysis.
The percent inhibition of DPPH was calculated according to the following equation: I (%) = ((I0 − I)/I0) ∗ 100 where I0 is the area of the EPR spectrum of DPPH (control sample), and I is the area of the EPR spectrum of DPPH with antioxidant compound. The rate constant for the reaction of antioxidant compounds with ^•OCH3 is expressed by the following equation: 1/Ra = 1/Rf + (kr [AH]/(ka [DMPO] × Rf). Rf, and Ra indicate EPR signal area (double integration of EPR signal) of ^•OCH3, DMPO/^•OCH3, respectively. ka and [DMPO] are constants, and a plot of 1/Ra vs. [AH] (concentration of antioxidant compound) gives a straight line with 1/Rf as an intercept and kr/(ka[DMPO] Rf) as the slope. In these circumstances, the rate constant for the reaction of ^•OCH3 with antioxidant compounds (kr) can be expressed by the following equation: kr = (ka [DMPO] × slope)/interception.

[2] = Adduct formation with 5-formyluracil, HRMS analysis; settings: equimolar 5fU, 180 min, 37 °C, methanol:ammonium formate buffer 5 mM pH 4.5 (40:60); 0.5 mM (compound 4 at 0.1 mM)
[3] = Kinetic of bis-adduct formation with 5fU, HPLC-DAD
[4] = 0.5 mM compound and 5fU, 37 °C, pH 4.5, bis-adduct at 254 nm

| Structure (SMILES) | DMPO kr/ka [1] | Adduct formation with 5fU (HRMS) [2] | Reactivity coefficient toward 5fU (ratio of reaction rate, compound/EDA) [3, 4] | Reactivity coefficient toward 5fU (ratio of reaction rate, compound/EDA) ([3]; compared with EDA at 0.1 mM) |
| --- | --- | --- | --- | --- |
| CC1=NN(c2ccccn2)C(=O)C1 [Compound 1] | 30 | mono- and bis-adducts were detected | 0.2 |  |
| CC1=NN(c2ccc(Cl)cc2Cl)C(=O)C1 [Compound 2] | 45 | mono- and bis-adducts were detected | 0.2 |  |
| COc1ccccc1C1=NN(c2ccc(Cl)cc2Cl)C(=O)C1 [Compound 3] |  | mono- and bis-adducts were detected |  |  |
| O=C1CC(c2ccc(Cl)cc2)=NN1c1ccc(Cl)cc1Cl [Compound 4] | 24 | mono- and bis-adducts were detected |  | 0.33 |
| O=C1CC(C23CC4CC(CC(C4)C2)C3)=NN1c1ccccc1Cl [Compound 5] | 29 | no adduct formation |  |  |
| CC1=NN(c2ccccc2)C(=O)C1 [EDA, 1-phenyl-3-methyl-5-pyrazolone, reference compound] | 60 | forms mono- and bis-adducts | 1 |  |
